1 molecule from publication PMC5818054 can be followed below.

Sequences of proteins named here, by UniProt entry; tags and fusion partners are left off.
UniProt Q9Y5K6: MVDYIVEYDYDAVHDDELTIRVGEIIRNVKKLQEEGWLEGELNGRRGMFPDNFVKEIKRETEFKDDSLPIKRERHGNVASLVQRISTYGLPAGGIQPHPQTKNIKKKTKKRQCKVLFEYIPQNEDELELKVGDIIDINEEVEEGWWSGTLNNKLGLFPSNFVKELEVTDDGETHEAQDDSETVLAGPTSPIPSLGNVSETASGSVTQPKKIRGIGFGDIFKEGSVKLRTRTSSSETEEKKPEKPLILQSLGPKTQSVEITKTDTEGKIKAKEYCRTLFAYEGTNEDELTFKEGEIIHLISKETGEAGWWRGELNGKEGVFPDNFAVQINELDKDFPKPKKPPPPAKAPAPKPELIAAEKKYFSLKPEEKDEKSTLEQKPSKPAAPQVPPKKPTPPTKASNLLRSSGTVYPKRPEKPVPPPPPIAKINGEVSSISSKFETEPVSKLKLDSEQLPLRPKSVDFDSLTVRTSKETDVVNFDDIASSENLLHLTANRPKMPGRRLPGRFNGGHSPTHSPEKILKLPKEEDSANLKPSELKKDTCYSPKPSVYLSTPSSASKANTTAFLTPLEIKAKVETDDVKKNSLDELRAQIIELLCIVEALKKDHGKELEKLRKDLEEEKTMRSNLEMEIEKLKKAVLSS

The experiment has as its target full-length GFP–CD2AP (not stated (a Xenopus CD2AP and a CD2AP of unnamed species were cloned)) (UniProt Q9Y5K6). Put plainly: co-IP; anti-GFP immunoprecipitations from extracts of U2OS cells transiently transfected with GFP–CD2AP or GFP; immunoblot with anti-PAWS1.

No constants are given. Whether binding was seen depends on the method and setting. In cells and extracts the contact can be indirect. Some binding calls cover weakened binding; strength is not graded here.

B1: endogenous PAWS1 (U2OS) (protein, UniProt A6ND36-1 1-823)
chain: MAFSQVQCLDDNHVNWRSSESKPEFFYSEEQRLALEALVARGRDAFYEVLKRENIRDFLSELELKRILETIEVYDPGSEDPRGTGPSQGPEDNGVGDGEEASGADGVPIEAEPLPSLEYWPQKSDRSIPQLDLGWPDTIAYRGVTRASVYMQPPIDGQAHIKEVVRKMISQAQKVIAVVMDMFTDVDIFKDLLDAGFKRKVAVYIIVDESNVKYFLHMCERACMHLGHLKNLRVRSSGGTEFFTRSATKFKGALAQKFMFVDGDRAVCGSYSFTWSAARTDRNVISVLSGQVVEMFDRQFQELYLMSHSVSLKGIPMEKEPEPEPIVLPSVVPLVPAGTVAKKLVNPKYALVKAKSVDEIAKISSEKQEAKKPLGLKGPALAEHPGELPELLPPIHPGLLHLERANMFEYLPTWVEPDPEPGSDILGYINIIDPNIWNPQPSQMNRIKIRDTSQASAQHQLWKQSQDSRPRPEPCPPPEPSAPQDGVPAENGLPQGDPEPLPPVPKPRTVPVADVLARDSSDIGWVLELPKEEAPQNGTDHRLPRMAGPGHAPLQRQLSVTQDDPESLGVGLPNGLDGVEEEDDDDYVTLSDQDSHSGSSGRGPGPRRPSVASSVSEEYFEVREHSVPLRRRHSEQVANGPTPPPRRQLSAPHITRGTFVGPQGGSPWAQSRGREEADALKRMQAQRSTDKEAQGQQFHHHRVPASGTRDKDGFPGPPRYRSAADSVQSSTRNAGPAMAGPHHWQAKGGQVPRLLPDPGSPRLAQNARPMTDGRATEEHPSPFGIPYSKLSQSKHLKARTGGSQWASSDSKRRAQAPRDRKDP
For B1, the binding result is “binds”.
